This passage reports IC50 results from patent publication US20080269237A1, “CARBAMIC ACID COMPOUNDS COMPRISING A PIPERAZINE LINKAGE AS HDAC INHIBITORS” (TOPOTARGET UK LIMITED, priority 2002, published 2008).

This test relates to K11 (HPV E7 transformed human keratinocyte line). Briefly: Secondary assay: cell proliferation inhibition WST-1, K11. It is filed as cell-based. Conditions: 48 h, read-out: Cell Proliferation Inhibition WST-1 (IC50 unless otherwise specified) K11. From the text:
Compounds with HDAC inhibition activity, as determined using the primary assay, were subsequently evaluated using secondary cell-based assays. The following cell lines were used:
HeLa—Human cervical adenocarcinoma cell line (ATCC ref. No. CCL-2). K11—HPV E7 transformed human keratinocyte line provided by Pidder Jansen-Duerr, Institut für Biomedizinische Altemsforschung, Innsbruck, Austria. NHEK-Ad—Primary human adult keratinocyte line (Cambrex Corp., East Rutherford, N.J., USA).
Cells were plated in 96-well plates at 3-10×10^3 cells/well in 100 μL of culture medium. The following day, different concentrations of candidate compounds were added and the cells incubated at 37° C. for 48 h. Subsequently, 10 μL/well of WST-1 reagent was added and the cells reincubated for 1 hour. After the incubation time, absorbance was measured.
WST-1 is a tetrazolium salt which is cleaved to formazan dye by cellular enzymes. […] The formazan dye produced is quantified by a scanning multiwell spectrophotometer by measuring the absorbance of the dye solution at 450 nm wavelength (reference wavelength 690 nm).
Percent activity (% activity) in reducing the number of viable cells was calculated for each test compound as: […]
IC50 values were calculated using the software package Prism 3.0 (GraphPad Software Inc., San Diego, Calif.), setting top value at 100 and bottom value at 0.

With `O=C(CCCCCCC(=O)Nc1ccccc1)NO` [SAHA, suberoylanilide hydroxamic acid, reference compound], the IC50 came to 6.82 µM.
